From patent US20170316147A1, “METHODS AND SYSTEMS FOR IDENTIFYING LIGAND-PROTEIN BINDING SITES” (King Abdullah University of Science and Technology, priority 2014, published 2017)
These are yes or no findings as the source states them, for the method shown. Some results given as binding are weak or reduced against the parent protein; the word gives no strength.

Protein sequences, listed by entry. Tags and fused reporters are not part of them. Lines headed by an entry give the natural chain unless they say otherwise; changes in a name come on top. Residues count along the entry.
UniProt P37231, residues 224-505: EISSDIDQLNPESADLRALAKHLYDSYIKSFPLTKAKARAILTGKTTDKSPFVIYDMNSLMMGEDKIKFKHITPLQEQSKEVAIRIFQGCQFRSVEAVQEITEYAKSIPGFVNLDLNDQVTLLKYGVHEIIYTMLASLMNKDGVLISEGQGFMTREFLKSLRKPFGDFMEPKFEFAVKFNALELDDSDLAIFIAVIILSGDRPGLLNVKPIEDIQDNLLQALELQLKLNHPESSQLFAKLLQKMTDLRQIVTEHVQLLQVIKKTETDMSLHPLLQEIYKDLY
UniProt P10415: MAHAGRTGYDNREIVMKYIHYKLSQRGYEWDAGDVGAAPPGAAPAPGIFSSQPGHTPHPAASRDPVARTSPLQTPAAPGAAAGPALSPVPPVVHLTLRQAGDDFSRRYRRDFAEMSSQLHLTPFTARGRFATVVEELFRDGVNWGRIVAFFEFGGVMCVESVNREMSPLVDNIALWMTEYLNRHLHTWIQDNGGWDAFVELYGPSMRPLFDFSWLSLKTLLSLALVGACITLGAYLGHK
UniProt Q64373: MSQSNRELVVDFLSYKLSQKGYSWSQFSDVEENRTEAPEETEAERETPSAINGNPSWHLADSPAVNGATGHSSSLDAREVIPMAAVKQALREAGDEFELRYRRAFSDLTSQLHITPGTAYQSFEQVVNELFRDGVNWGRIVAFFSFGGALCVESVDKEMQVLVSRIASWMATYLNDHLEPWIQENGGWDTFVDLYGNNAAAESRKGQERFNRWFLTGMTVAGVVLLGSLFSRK

Key:
[1] = molecular target: ligand binding domain (LBD) of human PPARγ (amino acids Glu196-Tyr477) (human) (UniProt P37231); assay: fluorescence anisotropy with fluorescein-labeled peptide
[2] = molecular target: T1, chimeric human Bcl-2 (with the internal loop 51-91 removed and residues 35-50 replaced by residues 33-48 of mouse Bcl-XL) (human; mouse) (UniProt P10415+Q64373); assay: fluorescence polarization, 20 nM Bax-BH3 with 400 nM Bcl-2, titrated with CoA
[3] = molecular target: T1, chimeric human Bcl-2 (with the internal loop 51-91 removed and residues 35-50 replaced by residues 33-48 of mouse Bcl-XL) (human; mouse); assay: DSLS thermal aggregation
[4] = molecular target: T1, chimeric human Bcl-2 (with the internal loop 51-91 removed and residues 35-50 replaced by residues 33-48 of mouse Bcl-XL) (human; mouse); assay: intrinsic tryptophan fluorescence quenching of Bcl-2

## DPASNLGLEDIIRKALMGSFD (N-terminal FITC) [FITC-…, fluorescence-labeled peptide corresponding to NCoR-RID2]
[1]
  binding: binds

## QDASTKKLSECLRRIGDELDSNMELQRMIAD (fluorescence-labeled (fluorescein); position of the label not stated) [fluorescence-labeled peptide … corresponding to Bax-BH3]
[2]
  binding: binds
[3]
  binding: binds
[4]
  binding: binds
